# Laboratory results reported in publication PMC7819943, “Rice protein-binding microarrays: a tool to detect cis-acting elements near promoter regions in rice”.
# Amino acid sequences for entries named in this document (tags omitted).
# UniProt Q0JBA9, entry or part of it: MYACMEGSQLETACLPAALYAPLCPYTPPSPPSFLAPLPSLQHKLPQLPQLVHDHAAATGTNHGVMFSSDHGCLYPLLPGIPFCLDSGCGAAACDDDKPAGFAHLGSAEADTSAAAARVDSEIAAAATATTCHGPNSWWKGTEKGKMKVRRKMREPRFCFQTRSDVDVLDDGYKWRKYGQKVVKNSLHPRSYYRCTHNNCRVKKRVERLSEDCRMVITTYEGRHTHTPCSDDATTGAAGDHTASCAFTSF
# Some of the results follow.
# Target: OsWRKY34 (Oryza sativa, UniProt Q0JBA9 1-250)
# Experiment: protein-binding microarray (RPBM); PBS, 2% BSA, 51.3 ng/ul salmon testes DNA, 50 uM zinc acetate, 200 nM TF, 25 C, 1 h; high values mean tight binding
# Conditions: protein: recombinant; tags: N-terminal polyhistidine and DsRed monomer fusion (pET32a); label: CyDye5-dUTP incorporated in the synthesized complementary strand; 3' TTTTT single-stranded linker to array surface; dsDNA, one strand shown
# Method in brief: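 Binding signal is defined as the fluorescence intensity of each feature in arbitrary units, read on an Axon 4000B scanner. Transcription factors with N-terminal polyhistidine and DsRed fusions came from E. coli BL21-CodonPlus and were purified on Ni–NTA. They were incubated at 200 nM for 1 h at 25 °C on a custom Agilent array that had been made double-stranded with Cy5-dUTP, with 50 µM zinc acetate present, and the array was washed.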
row,Sequence,binding signal
1,ATTTATTTCTAATAGGAGTTGAGTTGGTTTTCGTGTTCCGCGGAGTCACCTAGTGCAG,8480 fluorescence intensity (a.u.)
2,CCCAGCCCACTAAAACCACACTCCGATCCGAAACCGTCTTCGGAGTCACCTAGTGCAG,10500 fluorescence intensity (a.u.)
3,CTCGTGTGTCTTGCGGGCGGGTGATCTTTCCACATACAGACGGAGTCACCTAGTGCAG,19200 fluorescence intensity (a.u.)
4,GCTTTAATTCCTTCCCTTTTTTTCTTCTCCCCAAAACTTACGGAGTCACCTAGTGCAG,8110 fluorescence intensity (a.u.)
5,CCGAGCAAGTGCACAACTTCTCCTACCCATTGCTGGAAACCGGAGTCACCTAGTGCAG,8790 fluorescence intensity (a.u.)
6,ACCAAGATTTTTTTTAGCCATTTGACGCGCTTTATCGATACGGAGTCACCTAGTGCAG,10200 fluorescence intensity (a.u.)
7,TGACAGATGATTGCCTTTCGAACTACTAAGCTTTTTCTCACGGAGTCACCTAGTGCAG,9500 fluorescence intensity (a.u.)
8,GTGCATCGTGTGTGTGTTTGTTGTTAACGCGTCCGTCGCACGGAGTCACCTAGTGCAG,9290 fluorescence intensity (a.u.)
9,AATCACATTCTCAAGTCCTCACACATTCAATGCTGTAGATCGGAGTCACCTAGTGCAG,8290 fluorescence intensity (a.u.)
10,ATAGTACTTTATGCATCACTTATTATTTTTATTGTTTTTACGGAGTCACCTAGTGCAG,8780 fluorescence intensity (a.u.)
11,GATTAGACTCCCCTTCTCTGGTCCCATCGTCGCGTTGTTTCGGAGTCACCTAGTGCAG,8510 fluorescence intensity (a.u.)
12,CAGCTGCATGGGTTTTTTCTTTTTCTTTCCCCAAAATCGACGGAGTCACCTAGTGCAG,8140 fluorescence intensity (a.u.)
13,CCTTAGCGTTCACACCTGTTCCTTTCCCGCGCTTCGGATTCGGAGTCACCTAGTGCAG,10700 fluorescence intensity (a.u.)
14,AGCTACTGATCAGTGCTTCTGTATTTTTTTTAACTGCTGTCGGAGTCACCTAGTGCAG,9090 fluorescence intensity (a.u.)
15,TTCAAATCCAGTCGCAATTGTTCGTTTAGCTCCCGTTACGCGGAGTCACCTAGTGCAG,8460 fluorescence intensity (a.u.)
16,GAAGTCAACATCACACATATTTTAATTACGGGGTATAGTACGGAGTCACCTAGTGCAG,10500 fluorescence intensity (a.u.)
17,AGCTCACATGGATATTTGATCTTTATGGTGTTACTGAGCACGGAGTCACCTAGTGCAG,8130 fluorescence intensity (a.u.)
18,CCCTTGACCCCGGGTTTGTTTGTTTATGGACCTGGATGAACGGAGTCACCTAGTGCAG,9960 fluorescence intensity (a.u.)
19,AGGAGGTGCGATGCCGGCGTCCCATTGTCATTGATCTTGACGGAGTCACCTAGTGCAG,8920 fluorescence intensity (a.u.)
20,GCGCTCGCGTGGTTCCCGGTGGCGGCGGCGGCGGTGGCGGCGGAGTCACCTAGTGCAG,8320 fluorescence intensity (a.u.)
21,TGCCTGCCCCGCCACTTTTTTTGATGCTAAAAGTCATTTACGGAGTCACCTAGTGCAG,10000 fluorescence intensity (a.u.)

# Part of the list above in a different format.
row	Sequence	binding signal
19	AGGAGGTGCGATGCCGGCGTCCCATTGTCATTGATCTTGACGGAGTCACCTAGTGCAG	8920 fluorescence intensity (a.u.)
20	GCGCTCGCGTGGTTCCCGGTGGCGGCGGCGGCGGTGGCGGCGGAGTCACCTAGTGCAG	8320 fluorescence intensity (a.u.)

# (cont.)

row,Sequence,binding signal
1,ACTTAGGCATGCCACTCCTCATGATCTCATAGTTTACTGTCGGAGTCACCTAGTGCAG,9310 fluorescence intensity (a.u.)
2,GCTGCCGTCCTACTCGCCGCCCTCCTCATCATGGCTTAATCGGAGTCACCTAGTGCAG,9490 fluorescence intensity (a.u.)
3,TGTCTCCAATCACCCTTGTCGTCCAACCCCTGCTTTCCTGCGGAGTCACCTAGTGCAG,8970 fluorescence intensity (a.u.)
4,TTTTGGAGGAATTTTTCTTGTGAACTTTTTTCTTTTTAAACGGAGTCACCTAGTGCAG,8150 fluorescence intensity (a.u.)
5,TTTTTTTGCCGGGTTTTTTTGGAGAGGTTTTGTGAGCATGCGGAGTCACCTAGTGCAG,9510 fluorescence intensity (a.u.)
6,AGGAGTACATCTGTTATCTTTCTCTTTTTCTCTTTTTCTTCGGAGTCACCTAGTGCAG,9920 fluorescence intensity (a.u.)
7,ACATGATCTCATCCGTCCATCTGCCATGACATCTAATCTCCGGAGTCACCTAGTGCAG,8220 fluorescence intensity (a.u.)
8,AGTTTTGCACTGTTTATGTCTCACGTTTGACCGTTCGTTTCGGAGTCACCTAGTGCAG,11400 fluorescence intensity (a.u.)
9,AATGGCTGTTTGTTCCTTGATTGCCACGTCTCTTTCCATCCGGAGTCACCTAGTGCAG,11100 fluorescence intensity (a.u.)
10,ACTGCTCTTATCTCTCTTCTTTTATCTTCTTAAAATATGTCGGAGTCACCTAGTGCAG,11200 fluorescence intensity (a.u.)
11,TTTGTCCTGGGCTTCTTTCGGCCCAATCTCTCTCCCGTCGCGGAGTCACCTAGTGCAG,11100 fluorescence intensity (a.u.)
12,ACATGCACGCTGTTCGTTCCGCTCCGTCCGTTCACACGCGCGGAGTCACCTAGTGCAG,9090 fluorescence intensity (a.u.)
13,CCCCAGCCGCTGCCGCTGCCATGTGCAATCATCCCCGCATCGGAGTCACCTAGTGCAG,8760 fluorescence intensity (a.u.)
14,CCCGGATACTATAGGTGGACACCTTCGAGTCGCTTCTCTCCGGAGTCACCTAGTGCAG,8160 fluorescence intensity (a.u.)
15,CGATCTCTGGTTCCCTGTGCCGAAACTTATCTATTCAACTCGGAGTCACCTAGTGCAG,9150 fluorescence intensity (a.u.)
16,TATTTTCCCCTTCTCAGTCCTCACACGTTCTCTTCCTCTCCGGAGTCACCTAGTGCAG,9480 fluorescence intensity (a.u.)
17,ACTACCTTTTGTTTTGTTGGATACACTTGAAGGTTAATTTCGGAGTCACCTAGTGCAG,8310 fluorescence intensity (a.u.)
18,TACTTAATCCCATCGTCCATCCGCCATCTCATCTGATCTCCGGAGTCACCTAGTGCAG,14200 fluorescence intensity (a.u.)
19,CTTCTCTCTCTCTCTCTGACTACCAGCACGAAGATGACGACGGAGTCACCTAGTGCAG,9070 fluorescence intensity (a.u.)
20,GTACTATAATACTCTCTCCGTCCCTAAATATTTGACGCCGCGGAGTCACCTAGTGCAG,9340 fluorescence intensity (a.u.)
21,GGTCTATGTCTCTCTGATTATTTCTTTTACTAATTGTTTGCGGAGTCACCTAGTGCAG,9060 fluorescence intensity (a.u.)

row,Sequence,binding signal
1,GTTGTACTGCATCTGTAATATACTCCTTATATTCCTTCATCGGAGTCACCTAGTGCAG,8650 fluorescence intensity (a.u.)
2,ATTTCTAAAGTGTATTTCTATATGGACTCTAGTCTTCTCTCGGAGTCACCTAGTGCAG,8740 fluorescence intensity (a.u.)
3,GACCCACCACCACCACCACGCCGCGAGCACGCGAGCGAACCGGAGTCACCTAGTGCAG,8880 fluorescence intensity (a.u.)
4,CCGGCCGGCCGGCCGCACCTCCACCACCGCACAGCACCTCCGGAGTCACCTAGTGCAG,8280 fluorescence intensity (a.u.)
5,GAAGAGGGTGGTGATATTGTTCTGGATGATACTTTTGAAGCGGAGTCACCTAGTGCAG,10700 fluorescence intensity (a.u.)
6,CATCCTTTTCATCTCCCACCTCCTCACTCCTCGTCAGTTCCGGAGTCACCTAGTGCAG,8280 fluorescence intensity (a.u.)
7,CTCCGTCCATCAAGCTACCAAACAACCGCCAGCGTAATCGCGGAGTCACCTAGTGCAG,9020 fluorescence intensity (a.u.)
8,CCTCTTTTGCTGTGGACAATCAAAGCCTTTGTCTCACTATCGGAGTCACCTAGTGCAG,10500 fluorescence intensity (a.u.)
9,CTGATCCGCCCACGCCTCGCCGTCCCCACCCGCGCCGCCTCGGAGTCACCTAGTGCAG,9100 fluorescence intensity (a.u.)
10,CATGTCACATATTACGTTCATTTGAGTTCAATTTTTCTATCGGAGTCACCTAGTGCAG,9810 fluorescence intensity (a.u.)
11,TTTCTACACCCTGTAGATCCTTGGACCCACATGCAGACCACGGAGTCACCTAGTGCAG,8730 fluorescence intensity (a.u.)
12,AATTATTTTTTCATTCTATGTGGGCCATCTTGTGGCTAAACGGAGTCACCTAGTGCAG,10200 fluorescence intensity (a.u.)
13,CAAGTAATCAAGTATCCCAGCAATTGCAGTTTTTTTTTCCCGGAGTCACCTAGTGCAG,9400 fluorescence intensity (a.u.)
14,CGTGTGTAGATCCTATTTTTTTCTTTAAACTTCCAACTTTCGGAGTCACCTAGTGCAG,9460 fluorescence intensity (a.u.)
15,GCTACATGTCCTTTCGTATCGTTGACGATGTCATGGGGTACGGAGTCACCTAGTGCAG,10900 fluorescence intensity (a.u.)
16,TTGTGTAGGGTTTGTACATGGACTGGGATCAATACCACTCCGGAGTCACCTAGTGCAG,10600 fluorescence intensity (a.u.)
17,TATTCAGTTTGCTCCAAATTTTATTGCTAATGCTACAGATCGGAGTCACCTAGTGCAG,8060 fluorescence intensity (a.u.)
18,TAAATACCGTTTTTAGCTAACAGTCTTCACGATCAACTAACGGAGTCACCTAGTGCAG,8450 fluorescence intensity (a.u.)
19,TTCTACCTATTTCAACCTCCAACTACCCGCTCACCACAACCGGAGTCACCTAGTGCAG,9040 fluorescence intensity (a.u.)
20,GGGGTGTGAATTCTGGCCGCACATTGTACCTACCCAAAAACGGAGTCACCTAGTGCAG,8920 fluorescence intensity (a.u.)
21,AGGGTCTATTTTTGTAATTTTTTTGGCCGATAGATTATTTCGGAGTCACCTAGTGCAG,10300 fluorescence intensity (a.u.)

row,Sequence,binding signal
1,CCTGTTCTTTGTCTTCAACTCATCATGCTGTGGATGGATTCGGAGTCACCTAGTGCAG,10300 fluorescence intensity (a.u.)
2,ATCCAGTGAGCTCGAGGCTTCCCATCTATCCGCCGTTGGTCGGAGTCACCTAGTGCAG,8260 fluorescence intensity (a.u.)
3,CACCGCCGAACGCACGATTTCTTCCCGACGCTGTCACTTGCGGAGTCACCTAGTGCAG,8190 fluorescence intensity (a.u.)
4,CGACCGCGCCGCACCACCCGCCCGATCCGCCCGCGACCTCCGGAGTCACCTAGTGCAG,12700 fluorescence intensity (a.u.)
5,CCCCAAGCCACACTCCACCCTGTGTTCGCTTTGTTCTCACCGGAGTCACCTAGTGCAG,8560 fluorescence intensity (a.u.)
6,TGCGCTTCTATCTCTATTTATACTGTGAATTCCAAGCAATCGGAGTCACCTAGTGCAG,8110 fluorescence intensity (a.u.)
7,CAAACCGCGAATTTACGTGCCAACGTTTGACTGTTCGTCTCGGAGTCACCTAGTGCAG,8730 fluorescence intensity (a.u.)
8,TTTCCGTTTTGCTACAGTTAGTTTTGTGTTGGGTTGGATTCGGAGTCACCTAGTGCAG,9740 fluorescence intensity (a.u.)
9,GTCCCATCGTCTCTATTCGGGTCACCTTTGCACAACATGACGGAGTCACCTAGTGCAG,10500 fluorescence intensity (a.u.)
10,GTCATTTTTGGCCTTTTTTGGCTGTCTGTTCGGTTTTTTTCGGAGTCACCTAGTGCAG,11500 fluorescence intensity (a.u.)
11,TATTTTTTTTCTTATTTTCCTTCAATTAATGTGGGATTTTCGGAGTCACCTAGTGCAG,9850 fluorescence intensity (a.u.)
12,CCGAAGTGTTTATGTTTAATTTTTTTGACAAATTTATGTTCGGAGTCACCTAGTGCAG,8310 fluorescence intensity (a.u.)
13,GTCCGTTTCAGCAAAGGTTATCTTCATCTCTGCAATTTTCCGGAGTCACCTAGTGCAG,11000 fluorescence intensity (a.u.)
14,TCCTACCGACGATTCCAGCCCACCACACTATGCAAAGCACCGGAGTCACCTAGTGCAG,8200 fluorescence intensity (a.u.)
15,CACTTATACTCCACTTACATTCCACTTAGGCACTTACACACGGAGTCACCTAGTGCAG,9110 fluorescence intensity (a.u.)
16,AGTATTGAGTTAGAGAATTATTGCATGGCCCATTTCCTTTCGGAGTCACCTAGTGCAG,10200 fluorescence intensity (a.u.)
17,GAGATATCAGTAGCAGATCCTCGGGTTTTCTCACTCGATGCGGAGTCACCTAGTGCAG,8220 fluorescence intensity (a.u.)
18,ATCTTTGTTTTCTTTCTTCCTTGGCATAGGCTGGTCTGGCCGGAGTCACCTAGTGCAG,11700 fluorescence intensity (a.u.)
19,CTATTTTTCTCCTTGGGATCATGGCAAGCATTTTTCGTCACGGAGTCACCTAGTGCAG,9370 fluorescence intensity (a.u.)
20,GCCGCCACCTTCGCCTTTATAAAGCTTACCTTTGCTACCACGGAGTCACCTAGTGCAG,11500 fluorescence intensity (a.u.)
21,CTTCCCCATCAGGCCATCACCCACCCACGCGCCTCGCTGACGGAGTCACCTAGTGCAG,10800 fluorescence intensity (a.u.)

# A second format for some results above.
row | Sequence | binding signal
4 | CGACCGCGCCGCACCACCCGCCCGATCCGCCCGCGACCTCCGGAGTCACCTAGTGCAG | 12700 fluorescence intensity (a.u.)
10 | GTCATTTTTGGCCTTTTTTGGCTGTCTGTTCGGTTTTTTTCGGAGTCACCTAGTGCAG | 11500 fluorescence intensity (a.u.)
